In PubChem BioAssay AID248 (DTP/NCI, 2004):
The list is a part of this screen's results and no random one: it gathers tests that were run many times, whatever their T/C, doses with no T/C, and many T/C values between a quarter and a half above the control. Further doses and runs are listed elsewhere. T/C: endpoint of the treated group in % of that of the vehicle group. Some entries give survivors of the animals treated and no T/C: the source holds a T/C of zero for them, seemingly a mark for toxic or unscored doses. Some survivor counts are full or nearly so, which does not show that the dose was tolerated: the source hardly ever lists a survival T/C far under the control, and the zero likely stands for such cases as well. Counts of survivors are from the toxicity check (mostly the fifth day) where no day follows; animals may have died later. Schedules are NCI's codes, taken here to give the interval after Q, in days (D) or hours (H), and the number of doses after X. Some schedules carry Z or #; the key to these is not given. Some entries were tested several times; the results are listed from low to high. For survival time, this PubChem deposit counts one and a half times the control or more as active, and values a quarter to a half above the control carry no call in these data; other NCI protocols may use other cut-offs. Some T/C values carry the count of animals alive at the toxicity check (mostly the fifth day); where none is given, no animal had died by that day.

System: L1210 leukemia ip in BDF1 mice, survival T/C
Assay: NCI In Vivo Anticancer Drug Screen. Data for tumor model L1210 Leukemia (intraperitoneal) in B6D2F1 (BDF1) mice
Settings: T/C endpoint: mean survival time, higher T/C = longer survival
[1] = dose: 50.0 mg/kg/injection, schedule: Q01DX001 (ip), vehicle: saline
[2] = dose: 400.0 mg/kg/injection, schedule: Q01DX001 (ip), vehicle: saline
[3] = dose: 200.0 mg/kg/injection, schedule: Q01DX001 (ip), vehicle: Klucel (hydroxypropylcellulose) (HPC)
[4] = dose: 400.0 mg/kg/injection, schedule: Q01DX001 (ip), vehicle: Klucel (hydroxypropylcellulose) (HPC)
[5] = dose: 100.0 mg/kg/injection, schedule: Q04DX003 (ip), vehicle: Klucel (hydroxypropylcellulose) (HPC)
[6] = dose: 400.0 mg/kg/injection, schedule: Q04DX003 (ip), vehicle: Klucel (hydroxypropylcellulose) (HPC)

## O=C(Nc1ccc(C2=NCCCN2)cc1)c1ccc(C(=O)Nc2ccc(C3=NCCCN3)cc2)c(Cl)c1
dose: 1.5 mg/kg/injection, schedule: Q01DX015 (ip), vehicle: water
  survivor count: 3 of 6
dose: 3.0 mg/kg/injection, schedule: Q01DX015 (ip), vehicle: water
  survivor count: 3 of 6
dose: 6.0 mg/kg/injection, schedule: Q01DX015 (ip), vehicle: water
  survivor count: 2 of 6
dose: 12.5 mg/kg/injection, schedule: Q01DX015 (ip), vehicle: water
  survivor count: 0 of 6
dose: 25.0 mg/kg/injection, schedule: Q01DX015 (ip), vehicle: water
  survivor count: 0 of 6
dose: 50.0 mg/kg/injection, schedule: Q01DX015 (ip), vehicle: water
  survivor count: 0 of 6
dose: 100.0 mg/kg/injection, schedule: Q01DX015 (ip), vehicle: water
  survivor count: 0 of 6

## CCC1(O)CC(OC2CC(N(C)C)C(OC3CC4OC5CC(=O)C(C)OC5OC4C(C)O3)C(C)O2)c2c(cc3c(c2O)C(=O)c2c(O)ccc(O)c2C3=O)C1C(=O)OC (stereo not given)
dose: 0.75 mg/kg/injection, schedule: Q01DX009 (ip), vehicle: saline with Tween-80
  survivor count: 10 of 10
dose: 1.5 mg/kg/injection, schedule: Q01DX009 (ip), vehicle: saline with Tween-80
  survivor count: 10 of 10
dose: 1.5 mg/kg/injection, schedule: Q03HX008 (ip), vehicle: saline with Tween-80
  T/C: 129 % of control
dose: 3.0 mg/kg/injection, schedule: Q01DX009 (ip), vehicle: saline with Tween-80
  survivor count: 10 of 10
dose: 3.0 mg/kg/injection, schedule: Q01DX015 (ip), vehicle: saline
  survivor count: 2 of 6
dose: 4.0 mg/kg/injection, schedule: Q01DX001 (ip), vehicle: saline
  T/C: 130 % of control
dose: 4.0 mg/kg/injection, schedule: Q04DX003 (ip), vehicle: saline with Tween-80
  T/C: 136 % of control
dose: 5.0 mg/kg/injection, schedule: Q01DX015 (ip), vehicle: saline
  survivor count: 0 of 6
dose: 5.0 mg/kg/injection, schedule: Q04DX003 (ip), vehicle: saline
  T/C: 145 % of control
dose: 6.0 mg/kg/injection, schedule: Q01DX001 (ip), vehicle: saline
  T/C: 144 % of control
dose: 6.0 mg/kg/injection, schedule: Q01DX009 (ip), vehicle: saline with Tween-80
  survivor count: 5 of 10 and 9 of 10
dose: 6.25 mg/kg/injection, schedule: Q01DX001 (ip), vehicle: saline
  T/C: 139 % of control
dose: 9.0 mg/kg/injection, schedule: Q01DX001 (ip), vehicle: saline
  T/C: 149 % of control [5 of 6 alive]
dose: 12.0 mg/kg/injection, schedule: Q04DX003 (ip), vehicle: saline with Tween-80
  survivor count: 3 of 6 and 10 of 10
dose: 12.5 mg/kg/injection, schedule: Q01DX001 (ip), vehicle: saline
  survivor count: 1 of 4
dose: 25.0 mg/kg/injection, schedule: Q01DX001 (ip), vehicle: saline
  survivor count: 0 of 4
[1]
  survivor count: 0 of 4

## C=C(C)C1CCC2(C(=O)OC)CCC3(C)C(CCC4C5(C)CCC(OC6CCCCO6)C(C)(C)C5CCC43C)C12 (stereo not given)
dose: 50.0 mg/kg/injection, schedule: Q04DX002 (ip), vehicle: saline with Tween-80
  survivor count: 3 of 3

## C[N+](C)(Cc1ccccc1)/N=C(\[O-])Cc1ccccc1
[2]
  survivor count: 0 of 6

## CCCCN(CCCC)C(=N)c1c(C)cc(C)cc1C
dose: 20.0 mg/kg/injection, schedule: Q01DX001 (ip), vehicle: saline
  survivor count: 2 of 6
[1]
  survivor count: 0 of 4
dose: 100.0 mg/kg/injection, schedule: Q01DX001 (ip), vehicle: saline
  survivor count: 0 of 4
dose: 200.0 mg/kg/injection, schedule: Q01DX001 (ip), vehicle: saline
  survivor count: 0 of 4
[2]
  survivor count: 0 of 4

## CCOCCN1C=C/C(=C/C=C/c2cc[n+](CCOCC)c3ccccc23)c2ccccc21
dose: 1.8 mg/kg/injection, schedule: Q01DX009 (ip), vehicle: saline
  survivor count: 1 of 6
dose: 2.5 mg/kg/injection, schedule: Q01DX001 (ip), vehicle: saline
  survivor count: 3 of 6
dose: 2.8 mg/kg/injection, schedule: Q04DX003 (ip), vehicle: saline
  survivor count: 0 of 6
dose: 4.2 mg/kg/injection, schedule: Q04DX003 (ip), vehicle: saline
  survivor count: 4 of 6
dose: 5.0 mg/kg/injection, schedule: Q01DX001 (ip), vehicle: saline
  survivor count: 0 of 6

## O=C(O)c1cc2ccccc2c2cc(Br)ccc12
dose: 400.0 mg/kg/injection, schedule: Q01DX009 (ip), vehicle: saline sonified
  survivor count: 0 of 6

## CC(C)(C)CC(Cl)Cl
dose: 400.0 mg/kg/injection, schedule: Q01DX009 (ip), vehicle: Klucel (hydroxypropylcellulose) (HPC)
  survivor count: 0 of 6

## O=C1OC(=O)C(Cl)=C1Cl
dose: 200.0 mg/kg/injection, schedule: Q04DX002 (ip), vehicle: saline with Tween-80
  survivor count: 2 of 3
dose: 400.0 mg/kg/injection, schedule: Q04DX002 (ip), vehicle: saline with Tween-80
  survivor count: 1 of 3

## CCN1C(N)=NC(N)=NC1c1ccccc1 (stereo not given)
[3]
  survivor count: 0 of 3
[4]
  survivor count: 0 of 3

## CS(=O)(=O)c1nc2[nH]c(=O)[nH]c(=O)c2cc1C#N
[3]
  survivor count: 1 of 6
[4]
  survivor count: 0 of 6

## Cc1cccc(Nc2nc(N)nc(N)c2N)c1
dose: 100.0 mg/kg/injection, schedule: Q01DX Z (ip), vehicle: saline
  survivor count: 4 of 6
dose: 200.0 mg/kg/injection, schedule: Q01DX Z (ip), vehicle: saline
  survivor count: 0 of 6

## C[n+]1c2c3ccccc3scc-2c2ccccc21
dose: 100.0 mg/kg/injection, schedule: Q04DX003 (ip), vehicle: saline with Tween-80
  survivor count: 0 of 6
dose: 200.0 mg/kg/injection, schedule: Q04DX003 (ip), vehicle: saline with Tween-80
  survivor count: 1 of 6
dose: 400.0 mg/kg/injection, schedule: Q04DX003 (ip), vehicle: saline with Tween-80
  survivor count: 0 of 6

## O=[N+]([O-])c1c(Cl)sc(Cl)c1[N+](=O)[O-]
dose: 25.0 mg/kg/injection, schedule: Q04DX003 (ip), vehicle: Klucel (hydroxypropylcellulose) (HPC)
  survivor count: 0 of 6
[5]
  survivor count: 0 of 6
dose: 200.0 mg/kg/injection, schedule: Q04DX003 (ip), vehicle: Klucel (hydroxypropylcellulose) (HPC)
  survivor count: 0 of 6
[6]
  survivor count: 0 of 6

## NC(=O)c1ccccn1
[5]
  survivor count: 3 of 6
[6]
  survivor count: 2 of 6
